Source: patent publication US9387219B2, “Edible composition” (Conopco, Inc., priority 2011, dated 2016)
At least one structure is not confirmed: it was looked up by name or label, or the drawing left a doubt.

Target: T1, SGLT1 (Homo sapiens, UniProt P13866)
T1 construct: endogenous in cells; host or cells: differentiated Caco-2 cell monolayers (ATCC)
T1 sequence (P13866 1-664): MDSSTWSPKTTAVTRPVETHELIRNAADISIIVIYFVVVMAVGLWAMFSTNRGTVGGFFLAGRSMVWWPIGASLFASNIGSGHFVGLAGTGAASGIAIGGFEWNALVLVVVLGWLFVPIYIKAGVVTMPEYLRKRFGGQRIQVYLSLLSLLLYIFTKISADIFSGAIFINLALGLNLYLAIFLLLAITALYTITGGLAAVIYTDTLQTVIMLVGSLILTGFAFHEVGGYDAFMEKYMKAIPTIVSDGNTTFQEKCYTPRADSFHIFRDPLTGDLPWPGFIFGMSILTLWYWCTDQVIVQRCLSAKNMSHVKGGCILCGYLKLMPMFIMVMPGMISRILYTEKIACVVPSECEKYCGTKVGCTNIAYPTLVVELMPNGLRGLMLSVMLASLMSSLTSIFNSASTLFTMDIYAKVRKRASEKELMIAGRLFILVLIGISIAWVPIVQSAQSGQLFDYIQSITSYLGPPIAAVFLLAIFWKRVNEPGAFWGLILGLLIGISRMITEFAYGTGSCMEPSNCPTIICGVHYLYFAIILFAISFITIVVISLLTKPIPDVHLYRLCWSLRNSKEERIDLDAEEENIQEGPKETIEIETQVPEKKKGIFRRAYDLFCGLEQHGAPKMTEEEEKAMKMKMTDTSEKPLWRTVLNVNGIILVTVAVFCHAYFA
Test: Glucose transport inhibitor cell screening assay, 5 mM D-glucose for 15 minutes (SGLT1 inhibition)
Assay type: cell-based
Settings: assigned from % inhibition at 5 mM and 25 mM D-glucose in Caco-2 cells
Method: Human epithelial colorectal adenocarcinoma (Caco-2) cells were obtained from the American Type Culture Collection (ATCC) and cultured in Growth Medium consisting of Dulbecco's modified Eagle's medium (containing Glutamax-1, 4.5 g/L D-glucose and 25 mM 4-(2-hydroxyethyl)-1-piperazine ethanesulphonic acid (Hepes) (Invitrogen)), 10% foetal bovine serum (Sigma), 1% non-essential amino acids (Invitrogen) and 1 mM sodium pyruvate (Sigma)). The cells were routinely passaged at approximately 80% confluence using TrypLE™ Express Stable Trypsin-Like Enzyme (Invitrogen) to detach the cells, and seeded at approximately 114 cells per mm^2 in fresh tissue culture flasks. Only cells between the passage numbers 45 and 49 were used for experiments. […]
Differentiated cell monolayers were washed gently in Dulbecco's Phosphate Buffered Saline containing CaCl2 and MgCl2 (PBS(+) (Invitrogen)) and the inserts transferred to a new Corning® HTS Transwell®-96 well receiver plate (Sigma). […] The cell inserts were then discarded and the permeability of the membranes to Lucifer Yellow checked by measuring the fluorescence of the samples at 485 nm (excitation) and 530 nm (emission) on a Spectramax Gemini EM fluorescence microplate reader.
The amount of glucose transported across the cell monolayers was measured using a glucose assay based on Invitrogen's Amplex Red Glucose/Glucose oxidase Assay Kit. […]

Oc1cc(O)c2cc(O)c(-c3ccc(O)c(O)c3)[o+]c2c1 [Cyanidin]
Class (assigned class of transporter inhibited): None

Oc1ccc(-c2[o+]c3cc(O)cc(O)c3cc2O)cc1 [Pelargonidin]
Class (assigned class of transporter inhibited): None
